Results reported in PubChem BioAssay AID493014 (National Center for Advancing Translational Sciences (NCATS), 2011).
The other results are listed elsewhere or left out. Shown are side measurements of this screen, not its main read-out; they come without a call. The list favours compounds with an active or inconclusive main result. Words in brackets tell the shape of the fitted curve; partial curves, single points and poor fits give uncertain potencies.

Test: qHTS Assay to Find Inhibitors of Chronic Active B-Cell Receptor Signaling
Settings: ABC-DLBCL IkBa-CBG/CBR reporter, luminescence ratio (green luciferase fused to IkBa over red control in TMD8 lymphoma cells), 4 h
Summary of the method: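 Compounds up to 46 uM were incubated four hours with TMD8 cells whose green CBG68 luciferase is fused to IkappaBalpha; red CBR luminescence normalised the signal, and concentration-effect curves were fitted to fusion, red and ratio data.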

[1] = measured here: CBR red luminescence, cell number
[2] = measured here: IkBa-CBG green luminescence

CCCc1nc2ccc(N)cc2c(=O)n1Cc1ccccc1Cl
AC50 [1]: 0.1 µM [rising, full curve, poor fit]

COc1ccc(C(=O)Cn2nnc(-c3cccs3)n2)cc1
AC50 [1]: 23.1 µM [falling, partial curve, poor fit]

COc1cc(/C=N/O)ccc1OCc1ccc(Cl)cc1
AC50 [1]: 35.5 µM [falling, single point]

COc1ccc(C(C)=O)cc1COc1cccc2cccnc12
AC50 [1]: 14.1 µM [rising, partial curve, poor fit] | AC50 [2]: 14.1 µM [falling, partial curve, poor fit]

C=CCN(CC=C)c1cnn(-c2nc3ccccc3[nH]2)c(=O)c1Cl
AC50 [1]: 2.06 µM [falling, full curve]

CCOc1ccc(NC(=O)c2ccco2)c([N+](=O)[O-])c1
AC50 [1]: 1.84 µM [rising, partial curve, poor fit]

CC(C)c1ccc(/C=N/NC(=O)c2nnn(-c3nonc3N)c2CSC2=NCCS2)cc1
AC50 [1]: 32.6 µM [falling, partial curve, poor fit]

CCCC(=O)N1c2ccccc2[C@@H](N(C(C)=O)c2ccccc2)C[C@H]1C
AC50 [1]: 0.501 µM [falling, full curve, poor fit]

Cc1ccc(N(Cc2cc(=O)[nH]c3ccccc23)C(=O)CCl)cc1
AC50 [1]: 7.94 µM [falling, partial curve]

Cc1onc(-c2ccccc2)c1C(=O)NC(=S)NNC(=O)c1ccco1
AC50 [1]: 15.8 µM [falling, single point]

CCCc1nc2ccccc2c(C(=O)OCC(=O)Nc2ccc(S(=O)(=O)N3CCOCC3)cc2)c1CC
AC50 [1]: 29.1 µM [falling, single point]

Cn1ncc2c(Nc3ccc4ccccc4c3)ncnc21
AC50 [1]: 0.631 µM [rising, full curve, poor fit]

COC(=O)[C@]1(C)CCC[C@@]2(C)C3CC[C@]4(OC(C)=O)C[C@@]3(CCC21)CC4=NO (some centres not stated)
AC50 [1]: 25.9 µM [falling, single point]

Cc1sc2ncnc(SCC#N)c2c1C
AC50 [1]: 11.2 µM [rising, partial curve, poor fit]

C/C(CC(=O)Nc1ccc(OCc2ccccc2)cc1)=N\NC(=O)C(=O)Nc1ccccc1C
AC50 [1]: 1.41 µM [falling, full curve, poor fit]

N#C/C(=C\c1cc([N+](=O)[O-])ccc1Cl)C(N)=O
AC50 [1]: 35.5 µM [falling, partial curve, poor fit] | AC50 [2]: 35.5 µM [falling, single point]

CC(NCCC1(Cc2ccccc2Cl)CCOC(C)(C)C1)c1cccs1 (configuration not stated)
AC50 [1]: 35.5 µM [falling, single point]

Cc1csc(NC(=O)CCN2C(=O)c3ccccc3S2(=O)=O)n1
AC50 [1]: 23.1 µM [falling, single point]

Cc1ccc(Cl)cc1N1CCN(C(c2cccnc2)c2nnnn2C2CCCCC2)CC1 (configuration not stated)
AC50 [1]: 13 µM [rising, partial curve, poor fit]

O=C(/C=C\c1cccs1)c1c(O)ccc2ccc(=O)oc12
AC50 [1]: 10.3 µM [falling, partial curve, poor fit]

CCOc1ccc(CNC(=O)CCCc2cn(C)c3ccccc23)cc1OC
AC50 [1]: 4.61 µM [rising, full curve]

O=C(O)c1cccc(N/N=C/c2cccs2)c1
AC50 [1]: 0.58 µM [falling, full curve]

Cc1onc(-c2ccccc2Cl)c1C(=O)NC(=S)NCc1cccnc1
AC50 [1]: 11.2 µM [falling, partial curve]

COc1cccc(/C(O)=C/c2nc3ccc(C(=O)NCCc4ccc(Cl)cc4)cc3[nH]c2=O)c1
AC50 [1]: 9.2 µM [falling, partial curve]

CCOc1ccc(NS(=O)(=O)c2ccc(NC(=O)c3cccnc3)c(OC)c2)cc1
AC50 [1]: 35.5 µM [falling, single point]

Cc1cccc(NC(=O)CSCC(=O)NCc2cccc(C(F)(F)F)c2)c1
AC50 [1]: 3.98 µM [falling, single point]

COc1ccc(NC(=O)CSc2nnc(-c3ccccc3)n2Cc2ccco2)c(OC)c1
AC50 [1]: 4.47 µM [falling, partial curve, poor fit]

COc1ccc2ccccc2c1/C=N\NC(=O)c1ccc(C)s1
AC50 [1]: 7.94 µM [falling, partial curve, poor fit]

CNC(=S)N/N=C(\C)c1ccc(Cl)c(Cl)c1
AC50 [1]: 35.5 µM [rising, single point] | AC50 [2]: 15.8 µM [falling, partial curve]

C/C(=N/NC(=O)c1ccc(C)nc1)c1ccc2c(c1)CCCC2
AC50 [1]: 35.5 µM [falling, single point]

COc1ccc(NC(=O)n2ncc3c(C)cccc32)cc1
AC50 [1]: 11.2 µM [falling, partial curve]

CC(=O)n1cc(N(C(=O)CCl)c2ccccc2)c2ccccc21
AC50 [1]: 5.62 µM [falling, partial curve, poor fit] | AC50 [2]: 12.6 µM [rising, partial curve, poor fit]

Cc1ccc(S(=O)(=O)N/N=C/c2ccc3nccnc3c2)cc1
AC50 [1]: 12.6 µM [falling, single point]

O=C(c1cccn2c(=O)c3ccccc3nc12)N1CCN(c2ccccn2)CC1
AC50 [1]: 6.51 µM [falling, single point]

COc1ccc(C(=O)NNC(=O)C(=O)Nc2cccc3ccccc23)cc1
AC50 [1]: 4.47 µM [falling, partial curve]

CNC(=O)N1CCC(C(=O)c2c(C)c(C)c(C)c(C)c2C)CC1
AC50 [1]: 10 µM [rising, partial curve]

CCOC(=O)N1CCC(NC(=O)c2cc3sccc3n2CC)CC1
AC50 [1]: 1.12 µM [falling, partial curve, poor fit]

Cc1cc(NC(=O)CSc2nnc(-c3ccc(Br)o3)n2Cc2ccccc2)no1
AC50 [1]: 12.6 µM [falling, single point]

CCOC(=O)Cc1csc(NC(=O)/C=C/c2ccc(Cl)cc2)n1
AC50 [1]: 20 µM [falling, single point]

CS(=O)(=O)N1N=C(c2cccs2)CC1c1ccccc1O (configuration not stated)
AC50 [1]: 35.5 µM [rising, single point]

CCCc1ccc2oc(C(=O)N3CCN(c4cnccn4)CC3)c(C)c2c1
AC50 [1]: 7.08 µM [falling, partial curve]

COc1ccc(Nc2nccc(-c3cccc(N)c3)n2)cc1
AC50 [1]: 2.82 µM [falling, full curve, poor fit] | AC50 [2]: 3.16 µM [rising, full curve, poor fit]

CCN(CCNc1ccc(Cl)cc1[N+](=O)[O-])C(=O)c1cc([N+](=O)[O-])c(N(C)C)cc1OC
AC50 [1]: 9.2 µM [rising, partial curve, poor fit]

COC(=O)CC1=NN(c2ccccc2)C(=O)C1
AC50 [1]: 10 µM [falling, partial curve, poor fit]

Cc1ccccc1NC(=O)COC(=O)CC1CCCC1
AC50 [1]: 7.31 µM [falling, partial curve]

O=C(Nc1ccc(Cl)cc1)Nc1ccccc1C(=O)O
AC50 [1]: 0.0794 µM [falling, full curve, poor fit]

Oc1ccccc1C(Nc1nccs1)c1ccc2cccnc2c1O (configuration not stated)
AC50 [1]: 11.2 µM [falling, partial curve, poor fit]

CC(C)N=C1NN=C(c2ccc(Cl)c(Cl)c2)CS1
AC50 [1]: 12.6 µM [falling, partial curve, poor fit]

COc1ccccc1C(=O)Nc1ccnn1C1CCN(Cc2cn(C)c3ccccc23)CC1
AC50 [1]: 0.891 µM [falling, partial curve, poor fit]

Cc1ccc(N2CCN(c3ncccc3[N+](=O)[O-])CC2)c(C)c1
AC50 [1]: 12.6 µM [rising, partial curve, poor fit]

c1ccc(CN=C2Nc3ccccc3CS2)nc1
AC50 [1]: 25.1 µM [falling, single point]

O=C(NCCc1nc2ccccc2[nH]1)c1ccc(Cl)c([N+](=O)[O-])c1
AC50 [1]: 18.4 µM [falling, single point]

COCCN1Cc2cccc(C(=O)Nc3ccc(S(=O)(=O)N4CCCCCC4)cc3)c2C1=O
AC50 [1]: 15.8 µM [rising, single point]

O=C(Nc1nnc(-c2ccc(Br)cc2)o1)c1ccco1
AC50 [1]: 20.6 µM [falling, partial curve]

O=C(CSc1nc2[nH]ncc2c(=O)[nH]1)Nc1ccccc1
AC50 [1]: 7.08 µM [falling, partial curve]

Cc1ccc(C2(COC(=O)C(C)C)CO2)c(OC(=O)C(C)C)c1 (configuration not stated)
AC50 [2]: 28.2 µM [falling, partial curve, poor fit]

CCN(CC)CCN(C(=O)c1ccc(C(C)=O)cc1)c1nc2ccc(Cl)cc2s1
AC50 [1]: 35.5 µM [falling, single point]

COC(=O)Nc1ccc2c(c1)N(C(=O)CCN1CCN3CCCC3C1)c1ccccc1CC2 (configuration not stated)
AC50 [1]: 17.8 µM [falling, single point]

COc1ccc(Nc2ccc([N+](=O)[O-])cn2)cc1
AC50 [1]: 2.51 µM [rising, full curve, poor fit]

O=C(Nc1cccnc1)c1ccc(NC(=O)c2ccco2)cc1
AC50 [1]: 25.9 µM [rising, single point]

Cc1nnc(SCC(=O)Nc2nsc(-c3ccc(Cl)cc3)n2)s1
AC50 [1]: 13 µM [rising, partial curve, poor fit]

Cc1ccc(-n2nc3c(=O)n(CCCC(=O)NCc4ccc(C)o4)nc(C)c3c2C)cc1
AC50 [1]: 22.4 µM [falling, partial curve, poor fit]
